The amount applied is not stated for every result.
Experiment: Quantification of bile acids in stool (uPLC-MS)
Assay type: in vivo, dog
Settings: bile acid in stool, diet responsive dogs; for Days0vs14_fc: day 0 vs day 14; for Days0vs42_fc: day 0 vs day 42

## C[C@H](CCC(=O)O)[C@H]1CC[C@H]2[C@@H]3[C@H](O)[C@@H](O)[C@@H]4C[C@H](O)CC[C@]4(C)[C@H]3CC[C@]12C [AlphamuricholicAcid, alpha-muricholic acid]
  Days0vs14_fc: 1.74
  Days0vs42_fc: 2.91

## C[C@H](CCC(=O)O)[C@H]1CC[C@H]2[C@@H]3[C@H](O)[C@H](O)[C@@H]4C[C@H](O)CC[C@]4(C)[C@H]3CC[C@]12C [GammamuricholicAcid, gamma-muricholic acid]
  Days0vs14_fc: 16.18
  Days0vs42_fc: 18.33

## C[C@H](CCC(=O)O)[C@H]1CC[C@H]2[C@@H]3[C@@H](O)[C@H](O)[C@@H]4C[C@H](O)CC[C@]4(C)[C@H]3CC[C@]12C [OmegamuricholicAcid, omega-muricholic acid]
  Days0vs14_fc: 8.22
  Days0vs42_fc: 33.55

From US12501917B2, “Methods and compositions for treating intestinal disorder” (MARS, INCORPORATED, priority 2019, dated 2025)
